Test results published in PubChem BioAssay AID504834 (National Center for Advancing Translational Sciences (NCATS), 2011).
In all, about 320,000 compounds went through this assay and about 22,000 (6.9%) were called active. The inconclusive results got no clear call from the source; some entries with a clear call stand among them for comparison. Calls follow the shape of the dose curve; as a rule, active = well fitted inhibition curve with a large enough effect; inconclusive = small, poorly fitted or top-dose-only effect, or another doubt; inactive = no such curve, though single readings can be large or run the other way. Where the call is inconclusive, the potency comes from a doubtful curve fit.

assay: Primary qHTS for delayed death inhibitors of the malarial parasite plastid, 96 hour incubation; settings: P. falciparum luciferase reporter growth; series mostly up to 28.7 µM
Method in brief: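 Infected RBCs, 2% Hct / 0.05% parasitemia final; luciferase-reporter P. falciparum; cpd 96 h, 37 C, 5% CO2; luciferase detection reagent; luminescence.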
Potency is read from the fitted curve at half-maximal effect.

SMILES | Potency
COc1ccc(-c2ccnc3nc(N4CCOCC4)nn23)cc1 | inconclusive: 1.17 µM [inhibitor, partial curve, poor fit]
Cc1cccc(C)c1NC(=O)CN(C)C(=O)c1cc(S(=O)(=O)N(C)C)ccc1N1CCCC1 | inconclusive: 7.38 µM [inhibitor, partial curve, poor fit]
CCC1OC(=O)C[C@@H](O)[C@H](C)[C@@H](OC2OC(C)CC(N(C)C)C2O)[C@@H](CC=O)C[C@@H](C)C(=O)/C=C/[C@]2(C)OC2C1C (some centres undefined) | active: 0.0038 µM
Cc1ccccc1-n1c(SCC(=O)O)nc2sc3c(c2c1=O)CCCC3 | inconclusive: 18.5 µM [inhibitor, single point]
CN(C)c1ccc(/C=N/Nc2nncc3ccccc23)cc1 | inactive
CCOc1ccc(Nc2nc(N)c([N+](=O)[O-])c(N3CCOCC3)n2)cc1 | inconclusive: 11.7 µM [inhibitor, single point]
CCOC(=O)N1CCN(C(=O)c2cnsn2)CC1 | inconclusive: 11.7 µM [inhibitor, partial curve]
CSc1nc(C)c2c(n1)N(c1cccc(C)c1)CC2 | inconclusive: 10.4 µM [inhibitor, partial curve, poor fit]
N#C/C(=N/Nc1ccccc1[N+](=O)[O-])C(N)=S | inactive
CCn1c(Cc2ccc(OC)cc2)nnc1SCC(=O)Nc1ccc(N2CCOCC2)cc1 | inactive
COc1ccc(CCNC(=O)CN2CCN(c3ccccc3Cl)CC2)cc1 | inconclusive: 18.5 µM [inhibitor, single point]
O=C(COc1ccc2c(c1)CCC2)NCc1cccc(Cl)c1 | inconclusive: 2.94 µM [inhibitor, partial curve, poor fit]
Cc1nn(-c2ccccc2)nc1C(=O)Nc1nnc(C(F)(F)F)s1 | inactive
Cc1cc2c(c(SCC(=O)NCCc3ccccc3)n1)C(=O)OC2 | inconclusive: 5.86 µM [inhibitor, partial curve, poor fit]
Cc1ccc(O)c(C2=NOC(O)(C(F)(F)F)C2)c1 (centres undefined) | inactive
CCOC(=O)c1sc(NC(=O)COC(=O)CNC(=O)C2CCCCC2)c(C(=O)OCC)c1C | inactive
COc1ccc(C(=O)N2CCCN(C)CC2)cc1S(=O)(=O)N(C)Cc1ccccc1 | inconclusive: 2.94 µM [inhibitor, partial curve, poor fit]
CCCCNC(=O)c1sc(=S)n(-c2ccccc2OC)c1N | inconclusive: 13.1 µM [inhibitor, single point]
Oc1ccc(-n2nnnc2SCc2ccccc2Br)cc1 | active: 13.1 µM
CCOc1ccc(NC2=C(Cl)C(=O)N(Cc3ccccc3)C2=O)cc1 | inconclusive: 14.7 µM [inhibitor, single point]
CCC(CC)C(=O)Nc1cccc(C(=O)c2ccccc2)c1 | inconclusive: 14.7 µM [inhibitor, partial curve, poor fit]
COCCCNS(=O)(=O)c1ccc2[nH]c3c(c2c1)CCCCC3 | inconclusive: 3.7 µM [inhibitor, full curve]
NC(=O)NOCc1c(Cl)cccc1Cl | inactive

SMILES | Potency
COc1ccc(C(=O)CN2C3=NCCCN3c3ccccc32)cc1OC | inactive
COc1ccc(/C(=N\O)c2nccc3cc(OC)c(OC)cc23)cc1OC | inconclusive: 18.5 µM [inhibitor, single point]
c1ccc(C2c3[nH]c4ccccc4c3CCN2Cc2cccn2-c2ccccn2)nc1 (centres undefined) | inconclusive: 2.08 µM [inhibitor, full curve, poor fit]
O=C(CN1C(=O)COc2ccccc21)NC1CCCC1 | inactive
COc1cc(C)ccc1Oc1ncnc(N)c1[N+](=O)[O-] | inconclusive: 1.31 µM [inhibitor, partial curve, poor fit]
O=C(Nc1ccccc1Cl)c1cc(S(=O)(=O)N2CCCC(C(=O)O)C2)ccc1F (centres undefined) | inconclusive: 5.22 µM [inhibitor, partial curve, poor fit]
COc1ccc(CCNC(=S)NCCc2ccc(OC)c(OC)c2)cc1OC | active: 13.1 µM
O=C(Nc1ccc(OCC(=O)N2CCOCC2)cc1)c1ccccc1F | inconclusive: 7.38 µM [inhibitor, partial curve]
Cc1ccn2c(=O)nc(SCC(=O)OCc3ccccc3)nc2c1 | inconclusive: 6.57 µM [inhibitor, partial curve, poor fit]
COc1ccc(S(=O)(=O)N2CCN3CCCC3C2)cc1 (centres undefined) | inactive
COc1cc(C=C2C(=O)NC(=O)NC2=O)ccc1OS(=O)(=O)c1ccccc1[N+](=O)[O-] | inconclusive: 18.5 µM [inhibitor, single point]
COc1cc2c(cc1NC(=O)CN1C(=O)NC3(CCc4ccccc43)C1=O)oc1ccccc12 (centres undefined) | inconclusive: 11.7 µM [inhibitor, single point]
O=[N+]([O-])c1ccc(-c2nc(NCc3cccnc3)c3ccccc3n2)cc1 | active: 14.7 µM
COc1ccc(NC(=O)c2ccc(Cl)c(S(=O)(=O)NCC3CCCO3)c2)c(OC)c1 (centres undefined) | active: 11.7 µM
CC(=O)C1=C(C)NC(SCC(N)=O)=C(C#N)C1CC(C)C (centres undefined) | inactive
COc1ccc(N(CC(=O)N2c3ccccc3CC2C)S(=O)(=O)c2c(C)noc2C)cc1 (centres undefined) | inactive
CCc1nnc(NC(=O)Nc2ccc(Cl)cc2)s1 | inconclusive: 5.22 µM [inhibitor, partial curve]
O=C(Cc1ccc(F)cc1)N/N=C/c1ccccn1 | inconclusive: 6.57 µM [inhibitor, partial curve]
COc1ccc(CNc2nc(-c3cccnc3)nn2C(=O)c2cccs2)cc1 | inconclusive: 4.15 µM [inhibitor, single point]
Cc1ccc(C(=O)NN2C(=O)C3C(C2=O)C2C=CC3C23CC3)cc1 (centres undefined) | inconclusive: 11.7 µM [inhibitor, single point]
S=C(NC1CCCCC1)N1CCOCC1 | inactive
O=C(NCCc1ccccc1)c1cc(-c2ccc3c(c2)OCO3)on1 | inconclusive: 16.5 µM [inhibitor, partial curve, poor fit]
COc1ccc(C(=O)Nc2ccc3c(c2)nc(CN2CCN(C(C)=O)CC2)n3C)cc1 | inconclusive: 0.329 µM [inhibitor, full curve, poor fit]

At a glance, part of the list above:
SMILES | Potency
COc1ccc(CNc2nc(-c3cccnc3)nn2C(=O)c2cccs2)cc1 | inconclusive: 4.15 µM [inhibitor, single point]
Cc1ccc(C(=O)NN2C(=O)C3C(C2=O)C2C=CC3C23CC3)cc1 (centres undefined) | inconclusive: 11.7 µM [inhibitor, single point]
S=C(NC1CCCCC1)N1CCOCC1 | inactive
O=C(NCCc1ccccc1)c1cc(-c2ccc3c(c2)OCO3)on1 | inconclusive: 16.5 µM [inhibitor, partial curve, poor fit]
COc1ccc(C(=O)Nc2ccc3c(c2)nc(CN2CCN(C(C)=O)CC2)n3C)cc1 | inconclusive: 0.329 µM [inhibitor, full curve, poor fit]

Later entries

SMILES | Potency
COc1ccc2c(c1)c(C(=O)N/N=C/c1ccccc1Cl)c(C)n2C | inconclusive: 10.4 µM [inhibitor, single point]
CC(=O)NCCn1c(SCc2cc(F)ccc2F)nc2ccccc2c1=O | inconclusive: 0.0586 µM [inhibitor, full curve, poor fit]
Cc1ccccc1CS(=O)(=O)CCC(=O)NCc1ccccn1 | inactive
COc1ccc(-c2nnc3n2C(C)(C)Cc2cc(OC)c(OC)cc2-3)cc1 | inconclusive: 18.5 µM [inhibitor, partial curve, poor fit]
CC1(C)CC(=O)C(C=NCc2ccc3c(c2)OCO3)=C(O)C1 | inactive
CCN1C(=O)N(c2cccc3ccccc23)C(C)=CC1(C)C | inconclusive: 0.0586 µM [inhibitor, full curve, poor fit]
Cc1cc(C)c(C(=O)COC(=O)c2c(C)noc2C)cc1C | inactive
Cc1nc(OCc2ccccc2)c2ccccc2n1 | inconclusive: 13.1 µM [inhibitor, single point]
COc1ccc(/C=C/c2nc3ccccc3n2Cc2ccccc2OC)cc1 | inconclusive: 18.5 µM [inhibitor, single point]
Cc1coc2c(C)c3oc(=O)c(CCC(=O)NCCCN4CCOCC4)c(C)c3cc12 | inconclusive: 14.7 µM [inhibitor, partial curve, poor fit]
Cc1cccc(N2CCN(C(=S)c3ccc([N+](=O)[O-])cc3)CC2)c1 | inactive
Cc1ccc(S(=O)(=O)N2CCC(C(=O)Nc3nnc(-c4ccc(F)cc4)s3)CC2)cc1 | inactive
COC(=O)CCCC1=CC2=CC(=O)C(C)(OC(=O)c3cccs3)C(=O)C2=CN1Cc1ccco1 (centres undefined) | inconclusive: 13.1 µM [inhibitor, single point]
COC(=O)/C(C(C)=O)=C(\C=C\N(C)C)N(C)C | inactive
COc1ccc(C(=O)Nn2c(SCc3cccc([N+](=O)[O-])c3)nc3ccccc3c2=O)cc1 | inconclusive: 18.5 µM [inhibitor, single point]
CC(C)(C)c1ccc(C(=O)c2c[nH]c(C(=O)NCc3cccs3)c2)cc1 | inconclusive: 0.117 µM [inhibitor, full curve, poor fit]
CCOc1cc(/C=N\NC(=O)CN2CCOCC2)ccc1OCc1ccc(F)cc1 | active: 11.7 µM
O=C(O)COc1ccccc1/C=N/NC(=O)CSc1nc2ccccc2n1Cc1ccccc1Cl | inconclusive: 2.62 µM [inhibitor, full curve, poor fit]
O=[N+]([O-])c1cccc(S(=O)(=O)N2CCCCCC2)c1 | inactive
O=C(NCCCn1ccnc1)c1cccc(S(=O)(=O)Nc2ccc(Br)cc2)c1 | inconclusive: 0.329 µM [inhibitor, full curve, poor fit]
COc1ccc(S(=O)(=O)N2CCSCC2)cc1C(N)=O | inconclusive: 16.5 µM [inhibitor, single point]
O=C(CSc1ccc(-c2ccco2)nn1)NCc1ccc(Cl)cc1 | inconclusive: 18.5 µM [inhibitor, single point]
Cc1ccc(C)c(S(=O)(=O)N2CCN(c3nc(-c4cccnc4)nc4ccccc34)CC2)c1 | inconclusive: 9.28 µM [inhibitor, partial curve, poor fit]
